We go through 1 molecule from the supplement of paper PMC6411743.

± gives the standard deviation of the averaged measurements. The list shows a part of the results, in another mix than the full data.

The target in this test is VKORC1 (UniProt Q9BQB6). The experiment in a line: NP40-soluble protein abundance relative to vehicle (solubility fold change) (ratio); higher = more soluble protein in presence of ATP. The method in brief: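 In three independent experiments, Jurkat crude lysate made by Dounce homogenisation was treated for 10 min at room temperature and then 3 min at 37 °C with eight concentrations ranging from 0.1 to 10 mM. It was then solubilised with 0.8% NP40 plus benzonase for 60 min at 4 °C and ultracentrifuged. The supernatant was TMT-labelled for LC-MS/MS, and each value is the fold change against the detergent-processed vehicle for the same replicate, using vsn-normalised intensities.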

Take `Nc1ncnc2c1ncn2[C@@H]1O[C@H](COP(=O)(O)OP(=O)(O)OP(=O)(O)O)[C@@H](O)[C@H]1O` [adenosine triphosphate]: the NP40-soluble protein abundance (concentration: 1mM) is 1.08 ± 0.15; the NP40-soluble protein abundance (concentration: 2mM) is 1.06 ± 0.092; the NP40-soluble protein abundance (concentration: 4mM) was 1.04 ± 0.088; the NP40-soluble protein abundance (concentration: 6mM) worked out at 0.948 ± 0.099; the NP40-soluble protein abundance (concentration: 8mM) came out at 0.982 ± 0.035; the NP40-soluble protein abundance (concentration: 10mM) was found to be 1.035 ± 0.0075.
